Results deposited as PubChem BioAssay AID1259405 (NCATS, 2018).
The deposit covers about 50,000 reagents; this is a random part of them. About 4,000 of them (8%) were called active. 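Mouse siRNA library applied to hamster cells; one well for each siRNA.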 Reagents against one gene are numbered here. Reagent sequences are not shown.

Aim: 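Knock-downs that lift recombinant protein yield in hamster ovary cells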 (primary screen)
Cells: Chinese hamster CHO-K1 ovary cells with stable secreted eGFP expression
Reagent: single siRNA against mouse genes, 0.8 pmol siRNA per well (2 µl of 400 nM stock)
Time to read-out: 3 days
Read-out: 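Percent of the per-plate non-targeting control median for intracellular GFP per well by laser scanning cytometry and for cell viability by ATP luminescence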
Reading the numbers: GFP, % of control: higher = more GFP per well, higher productivity; viability (ATP), % of control: higher = more viable cells (more ATP)
Hit rule: 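a knock-down is called active if GFP reaches 120% or more of non-targeting control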

Scel #1
- GFP, % of control: 31.9
- viability (ATP), % of control: 33.9
- activity call: inactive

Scel #2
- GFP, % of control: 54.8
- viability (ATP), % of control: 74.1
- activity call: inactive

Scel #3
- GFP, % of control: 58.9
- viability (ATP), % of control: 88.4
- activity call: inactive

D030056L22Rik #1
- GFP, % of control: 76.8
- viability (ATP), % of control: 88.8
- activity call: inactive

D030056L22Rik #2
- GFP, % of control: 73.8
- viability (ATP), % of control: 91.8
- activity call: inactive

D030056L22Rik #3
- GFP, % of control: 83.8
- viability (ATP), % of control: 92.9
- activity call: inactive

Gabra2 #1
- GFP, % of control: 81.3
- viability (ATP), % of control: 98.4
- activity call: inactive

Gabra2 #2
- GFP, % of control: 56.4
- viability (ATP), % of control: 48.8
- activity call: inactive

Gabra2 #3
- GFP, % of control: 50.9
- viability (ATP), % of control: 53.1
- activity call: inactive

Chrm3 #1
- GFP, % of control: 72
- viability (ATP), % of control: 77.2
- activity call: inactive

Chrm3 #2
- GFP, % of control: 84.5
- viability (ATP), % of control: 69
- activity call: inactive

Chrm3 #3
- GFP, % of control: 67.8
- viability (ATP), % of control: 89.5
- activity call: inactive

Galnt5 #1
- GFP, % of control: 55
- viability (ATP), % of control: 107
- activity call: inactive

Galnt5 #2
- GFP, % of control: 74.6
- viability (ATP), % of control: 74.7
- activity call: inactive

Galnt5 #3
- GFP, % of control: 70.4
- viability (ATP), % of control: 108
- activity call: inactive

Laid out differently: results already given.
| gene symbol | reagent no. | GFP, % of control | viability (ATP), % of control | activity call |
| --- | --- | --- | --- | --- |
| D030056L22Rik | 2 | 73.8 | 91.8 | inactive |
| D030056L22Rik | 3 | 83.8 | 92.9 | inactive |

Further entries follow.
Ext2 #1
- GFP, % of control: 128
- viability (ATP), % of control: 132
- activity call: active

Ext2 #2
- GFP, % of control: 45.6
- viability (ATP), % of control: 74.4
- activity call: inactive

Ext2 #3
- GFP, % of control: 116
- viability (ATP), % of control: 127
- activity call: inactive

Slc38a5 #1
- GFP, % of control: 119
- viability (ATP), % of control: 77.9
- activity call: inactive

Slc38a5 #2
- GFP, % of control: 86.9
- viability (ATP), % of control: 86.5
- activity call: inactive

Slc38a5 #3
- GFP, % of control: 81.7
- viability (ATP), % of control: 57.5
- activity call: inactive

Or4a70 #1
- GFP, % of control: 58.1
- viability (ATP), % of control: 74.7
- activity call: inactive

Or4a70 #2
- GFP, % of control: 135
- viability (ATP), % of control: 84.2
- activity call: active

Or4a70 #3
- GFP, % of control: 77.4
- viability (ATP), % of control: 117
- activity call: inactive

Sv2b #1
- GFP, % of control: 129
- viability (ATP), % of control: 111
- activity call: active

Sv2b #2
- GFP, % of control: 146
- viability (ATP), % of control: 95.5
- activity call: active

Sv2b #3
- GFP, % of control: 62.2
- viability (ATP), % of control: 81.4
- activity call: inactive
